# Test results reported in the supplement of paper PMC12873370.
# “And” between values parts separate entries of the source, which are not always exact repeats. Identical values can stand only once. The list shows a part of the results. Many values rest on one well or one pass, so single values are uncertain.
# Legend:
# [1] = system: MEPP (mouse ovarian epithelium Trp53/Pten KO); assay: cell viability relative to untreated (fraction); higher = less growth inhibition; details: 5 µM; 3 days
# [2] = system: PREPP (mouse prostate epithelium Trp53/Pten KO); assay: as above; details: 5 µM; 3 days
Structure (SMILES),cell viability [1],cell viability [2]
Nc1nc(=O)c2c([nH]1)NC[C@@H](CNc1ccc(C(=O)N[C@@H](CCC(=O)O)C(=O)O)cc1)N2C=O,1.16 and 0.966,0.943 and 1.04
COc1cc([C@@H]2c3cc4c(cc3[C@@H](O[C@@H]3O[C@@H]5CO[C@@H](C)O[C@H]5[C@H](O)[C@H]3O)[C@H]3COC(=O)[C@H]23)OCO4)cc(OC)c1O,0.851,0.831
O=c1c(O)c(-c2cc(O)c(O)c(O)c2)oc2cc(O)cc(O)c12,0.809,1.37
C[N+](C)(C)CCO.O=C([O-])C(O)C(O)C(=O)O (stereo not drawn),0.819,1.17
